Measurements published in patent US6046289A (priority 1990, dated 2000).
For part of these data: HELM strings list residues between dots; [ac] is acetyl, [am] amide, other brackets name non-standard units.

assay: solution-phase peptide synthesis; conditions: coupling step, hydrochloride

Substance | step yield [%]
BocArg(Mts)GlyAsp(OBzl)Ser(Bzl)GlyNH2 | 45
BocArg(Mts)GlyAsp(OBzl)Ser(Bzl)OBzl | 50
BocGlyAsp(OBzl)Ser(Bzl)GlyNH2 | 84

same assay, conditions: late stage modification step, hydrochloride

Substance | step yield [%]
BocArg(Mts)GlyAsp(OBzl)Gly | 79
CH2 =CCH3 --CO--NH--C2 H4 --CO-RGDSGNH2 | 65
PEPTIDE1{[Methacryloyl].[bAla].R.G.D.S}$$$$V2.0 | 80

assay: general procedure: Boc solid-phase peptide synthesis; conditions: whole synthesis, hydrochloride

Substance | isolated yield [%]
CH2=CC2H5-CO-NH-(CH2)4-CO-GRGDS | 35
CH2=CCH3-CO-GRGDSP | 26
CH2=CH-CO-GGGRGDS | 30
